Assay results from patent publication US11541019B2, “Compositions for use in the treatment of diabetes” (University of Ulster, priority 2015, dated 2023).

Test system: high fat fed diabetic NIH Swiss mice
Assay: Long-term daily oral administration in high fat fed diabetic mice
Assay type: in vivo
Settings: HFF mice, DEXA
Description: […] In order to confirm diabetes, an oral glucose tolerance test (OGTT) was performed. Food intake, fluid intake, body weight, non-fasted plasma glucose and insulin concentrations were monitored every 2- to 4-days as indicated in the accompanying drawings. At the end of the study, glucose tolerance (18 mmol/kg body weight) and insulin sensitivity (25 U/kg body weight) were assessed. Mice were anesthetised by isoflurane and killed by cervical dislocation. Dual energy X-ray absorption (DEXA) scanning was performed after prior calibration and quality control with the aluminium/lucite phantom (0.069 g/cm2, 12.0% fat) using a PIXImus system (software version 1.4x).

c1ccc2c(Cc3c[nH]c4ccccc34)c[nH]c2c1 [Diindolylmethane, 3,3′-methanediylbis(1H-indole)]
no change: body mineral density | bone area | bone mineral content

CCCCCCCCCCCC1=C(O)C(=O)C=C(O)C1=O [Embelin, 2,5-dihydroxy-3-undecylcyclohexa-2,5-diene-1,4-dione]
no change: body mineral density | bone area | bone mineral content
